From the supplement of paper PMC11006884
The entries are a selection whose mix differs from that of the whole data set.

compound: COC(=O)C#Cc1ccccc1 [methyl 3-phenylpropiolate]; test: log2 ratio of iodoacetamide-alkyne labeling of the cysteine site, DMSO over compound (competition); higher = stronger covalent engagement of the cysteine by the compound, active = 1 or more; settings: 500 µM; treatment time 1 h; system: HEK293T cell lysate
How it was run: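 For each cysteine, the log2 competition ratio is mean control-channel reporter intensity over mean compound-channel reporter intensity. HEK293T lysate (2 mg/mL) was exposed to vehicle or electrophile (500 µM, 1 h, ambient temperature), labelled with iodoacetamide alkyne (1 h), clicked to sCIP-TMT reagents, digested overnight with trypsin at 37 °C, streptavidin-enriched and analysed by Orbitrap Eclipse LC-MS/MS with FAIMS and FragPipe. Cysteines quantified in only one of three replicates, each with duplicate channels, were excluded.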

| Target | log2 ratio of iodoacetamide-alkyne labeling |
| --- | --- |
| RANBP9 C610 (UniProt Q96S59) | inactive: 0.53 |
| SH3GL1 C96 (UniProt Q99961) | inactive: 0.45 |
| TTC1 C8 (UniProt Q99614) | inactive: 0.0638 |
| DNAJC7 C317 (UniProt Q99615) | inactive: -0.15 |
| CCT7 C310 (UniProt Q99832) | inactive: 0.193 |
| NACC1 C416 (UniProt Q96RE7) | inactive: 0.13 |
| STRBP C142 (UniProt Q96SI9) | inactive: 0.448 |
| TTC1 C66 (UniProt Q99614) | inactive: 0.54 |
| ITCH C871 (UniProt Q96J02) | inactive: 0.185 |
| MARK4 C459 (UniProt Q96L34) | inactive: 0.636 |
| ACO2 C385 (UniProt Q99798) | active: 1.66 |
| PURB C17 (UniProt Q96QR8) | inactive: 0.596 |
| POP1 C530 (UniProt Q99575) | inactive: 0.164 |
| NSD1 C1312 (UniProt Q96L73) | inactive: 0.503 |
| MYBBP1A C1031 (UniProt Q9BQG0) | inactive: 0.225 |
| SMG1 C3401 (UniProt Q96Q15) | inactive: -0.371 |
| RPRD1A C220 (UniProt Q96P16) | inactive: 0.342 |
| MYBBP1A C338 (UniProt Q9BQG0) | inactive: 0.575 |

Look-ups from the results shown.
Entry of PURB C17 (UniProt Q96QR8) under log2 ratio of iodoacetamide-alkyne labeling: inactive: 0.596
Entry of SMG1 C3401 (UniProt Q96Q15) under log2 ratio of iodoacetamide-alkyne labeling: inactive: -0.371

(cont.)

| Target | log2 ratio of iodoacetamide-alkyne labeling |
| --- | --- |
| SCYL1 C210 (UniProt Q96KG9) | inactive: -0.0672 |
| XPO6 C22 (UniProt Q96QU8) | inactive: 0.218 |
| ZFR C844 (UniProt Q96KR1) | inactive: 0.319 |
| CRBN C78 (UniProt Q96SW2) | inactive: 0.133 |
| ZFYVE21 C47 (UniProt Q9BQ24) | inactive: 0.392 |
| RSF1 C404 (UniProt Q96T23) | inactive: 0.512 |
| SPAG5 C822 (UniProt Q96R06) | inactive: -0.122 |
| CDC5L C769 (UniProt Q99459) | inactive: 0.143 |
| ADO C258 (UniProt Q96SZ5) | inactive: 0.15 |
| POP1 C666 (UniProt Q99575) | inactive: -0.253 |
| STRBP C40 (UniProt Q96SI9) | inactive: 0.168 |
| PDLIM2 C289 (UniProt Q96JY6) | inactive: 0.116 |
| DDX50 C633 (UniProt Q9BQ39) | inactive: -0.0901 |
| PNKP C516 (UniProt Q96T60) | inactive: 0.166 |
| USP47 C856 (UniProt Q96K76) | inactive: 0.276 |
| ZNF48 C288 (UniProt Q96MX3) | inactive: 0.989 |
| WDR24 C587 (UniProt Q96S15) | inactive: -0.237 |
| CDK5RAP2 C683 (UniProt Q96SN8) | inactive: 0.506 |
